In paper PMC12040169 (PLOS Biology, 2025):
The other results are listed elsewhere or left out.

These compounds were tested on T1, CTL2-GFP (C. trachomatis L2/434/Bu, GFP-expressing). Settings: bulk GFP, single well; 28.5 h, 10 µM; inhibitor.
T1 construct: L2/434/Bu, GFP-expressing
Set-up: species or system HeLa; Intracellular C. trachomatis growth in HeLa cells, bulk GFP fluorescence relative to DMSO

Row | Structure (SMILES) | % of control remaining [%]
1 | Cc1cnc2[nH]c(C3CCCN(C(=O)c4cnn(C)c4C)C3)cc2c1 (stereo not shown) [CBK285171] | 100.302
2 | CC(=O)c1c(C)oc2ccc(N(C(=O)c3cccc([N+](=O)[O-])c3)S(=O)(=O)c3cccc4cccnc34)cc12 [CBK267044] | 109.452
3 | COc1cccc(CC(=O)Nc2ccc3c(C)cc(C)nc3n2)c1 [CBK287992] | 147.416
4 | Cc1cnn(CC(=O)N2CCC(c3cc4ncccc4[nH]3)CC2)c1 [CBK284458] | 154.264
5 | COc1ccc(C(=O)CN2CCN(CCN3C(=O)c4cccc5cccc(c45)C3=O)CC2)cc1 [CBK074628] | 135.696
6 | CC(C)(C)OC(=O)N1CCN(c2ccc([N+](=O)[O-])cn2)CC1 [CBK000134] | 85.9434
7 | COc1ccc2c(c1)OC1(CCN(C(=O)c3cc(OC)c(C)c(OC)c3)CC1)NC2=O [CBK166244] | 123.419
8 | CCn1cc(C(=O)O)c(=O)c2cc(F)c(N3CCN(C(=O)c4ccc(C)cc4)CC3)cc21 [CBK286986] | 150.948
9 | CC(CCCC(C)(C)O)CC1OCCC(C)O1 (stereo not shown) [CBK019986] | 107.249
10 | Cc1onc(-c2c(Cl)cccc2Cl)c1N(C)C(=O)N1CCCCC1 [CBK086555] | 80.0839
11 | Cc1cc(NC(=O)c2cccc(N3C(=O)CCC3=O)c2)no1 [CBK287352] | 82.2964
12 | CCN(CC(C)C#N)C(=O)c1nnn(-c2ccc3ncccc3c2)c1C (stereo not shown) [CBK305292] | 148.405
13 | Cc1occc1-c1nnc(SCC(=O)Nc2c(C)n(C)n(-c3ccccc3)c2=O)o1 [CBK269042] | 87.5344
14 | CC(C)(C)Cc1ccc(CC(=O)O)c(OCc2ccccc2)n1 [CBK012508] | 124.24
15 | NCc1ccc(CN(Cc2ccc(-c3ccccc3)cc2)C(=O)Nc2c(F)cccc2F)cc1 [CBK046115C] | 41.1804
16 | COCCCNC(=S)Nc1ccc(N2CCOCC2)c2nonc12 [CBK266947] | 158.847
17 | CCn1cc(S(=O)(=O)NC2(c3ccc(F)cc3)CC2)cn1 [CBK282801] | 85.1844
18 | C/C(=N\NC(=O)CSc1nc2ccccc2n1Cc1ccccc1)c1ccco1 [CBK263180] | 98.8829
19 | Cn1ccc(C(=O)NC(Cc2ccsc2)c2cccnc2)n1 (stereo not shown) [CBK285117] | 77.3348
20 | Cc1c(C(=O)O)sc(S(=O)(=O)N2CCN(C(=O)CCc3cccs3)CC2)c1C(=O)O [CBK297135] | 129.081
21 | Cc1nnsc1C(=O)Nc1ncn(CC(=O)N2CCCCCC2)n1 [CBK305522] | 125.192
22 | COc1ccc(CCC(=O)Nc2ccccc2N2CCCNCC2)cc1 [CBK024286T] | 125.616
23 | O=C(Cc1cccs1)N1CCC(c2cc3ncccc3[nH]2)CC1 [CBK283393] | 113.824
24 | Cc1cc(CNC(=O)COc2ccc(C#N)cc2)c2ccccc2n1 [CBK270129] | 126.623
25 | COc1cc(Cl)c(C)cc1NC(=O)c1ncn(-c2ccccc2)n1 [CBK269456] | 141.751
26 | O=C(O)COc1ccc(Br)cc1/C=C\c1nc(O)c([N+](=O)[O-])c(=O)[nH]1 [CBK267223] | 157.083
27 | O=C(CSc1nc2cccnc2[nH]1)Nc1cc(Cl)ccc1Cl [CBK264644] | 100

Row | Structure (SMILES) | % of control remaining [%]
28 | Cn1c(=O)oc2cc(S(=O)(=O)NCCC(=O)O)ccc21 [CBK267567] | 133.519
29 | CCc1noc(C)c1C(=O)N1CC[C@@H](CNC(=O)N2CCCC2)[C@H](O)C1 [CBK307222] | 130.068
30 | Fc1ccc(CCN2CCC(Oc3nccnc3OCCN3CCOCC3)CC2)cc1 [CBK082937T] | 94.8687
31 | Cc1cccc(OCc2nnc(SCC(=O)Nc3cc(C(F)(F)F)ccc3Cl)o2)c1C [CBK267204] | 171.864
32 | Cc1csc2nc(-c3ccccc3)cn12 [CBK098072] | 72.1798
33 | O=C(Nc1cccc(N2CCNCC2)c1)C1CCCO1 (stereo not shown) [CBK004768T] | 100
34 | O=[N+]([O-])c1ccc(N2CCNCC2)cc1NCCO [CBK262851] | 117.568
35 | O=C1CCC2(CCN1)CCN(Cc1cccc(-c3ccco3)c1)CC2 [CBK307264] | 100.937
36 | O=[N+]([O-])c1cccc(S(=O)(=O)NCCSc2ccccc2)c1 [CBK267862] | 122.79
37 | O=C(NCc1ccncc1)C1CC1c1ccccc1 (stereo not shown) [CBK288242] | 150.204
38 | CN(CC(=O)O/N=C(\N)c1ccccn1)S(=O)(=O)c1ccc(Br)cc1 [CBK268617] | 153.508
39 | CCN1C(=O)c2cccc3c(S(=O)(=O)Nc4cccc(C(=O)O)c4)ccc1c23 [CBK299838] | 162.049
40 | Cc1cc2nc(NC(=N)N)nc(C)c2cc1C [CBK262269] | 84.1179
41 | CCOC(=O)c1[nH]c2c([N+](=O)[O-])cccc2c1O [CBK115315] | 97.6624
42 | C[C@H](NC(=O)OC1CC[C@@]2(c3ccccc3)CCN(C)[C@H]2C1)c1cccc2ccccc12 (stereo partly shown) [CBK003664] | 92.1451
43 | O=C(O)CSCC(=O)N(Cc1ccccc1)c1nc(-c2ccccc2)c(-c2ccccc2)s1 [CBK296138] | 126.625
44 | Cn1ncc2c1CCCN(C(=O)CCCOc1ccccc1F)C2 [CBK285278] | 135.512
45 | CCC(C)(C)c1ccc(S(=O)(=O)N2CCN(Cc3ccc(O)c(F)c3)CC2)cc1 [CBK062968] | 109.5
46 | COCCOCC(C)NC(=O)COc1nn(C)c2nc(C)cc(C)c12 (stereo not shown) [CBK305177] | 88.8527
47 | CNCc1cccc(OC)c1OCc1ccccc1F [CBK269949C] | 90.4752
48 | CN1CCN(c2nc(-c3ccoc3)cnc2N)CC1 [CBK063362] | 167.539
49 | CC(C)N(CCC(c1ccccc1)c1cc(Br)ccc1OCc1ccccc1)C(C)C (stereo not shown) [CBK017656] | 66.3297
50 | CCOC(=O)c1cc(C)sc1NC(=O)CCC(=O)O [CBK265412] | 105.48
51 | Cc1ccc(NC(=O)c2ccc(-n3nncc3C)cc2)cc1 [CBK287790] | 128.192
52 | COCCNC(=O)C1(O)c2ccccc2NC(=O)N1c1cccc(OC)c1 (stereo not shown) [CBK288589] | 135.761
53 | Cc1ccc(SCCNCCN2CCOCC2)cc1 [CBK268581G] | 161.617
54 | COc1ccc(C(=O)OC(C)(C)C)c(-c2cncc(NCc3ccco3)n2)c1 [CBK037751] | 146.078

20 of these compounds in a different format:
Row	Structure (SMILES)	% of control remaining [%]
3	COc1cccc(CC(=O)Nc2ccc3c(C)cc(C)nc3n2)c1 [CBK287992]	147.416
4	Cc1cnn(CC(=O)N2CCC(c3cc4ncccc4[nH]3)CC2)c1 [CBK284458]	154.264
5	COc1ccc(C(=O)CN2CCN(CCN3C(=O)c4cccc5cccc(c45)C3=O)CC2)cc1 [CBK074628]	135.696
6	CC(C)(C)OC(=O)N1CCN(c2ccc([N+](=O)[O-])cn2)CC1 [CBK000134]	85.9434
7	COc1ccc2c(c1)OC1(CCN(C(=O)c3cc(OC)c(C)c(OC)c3)CC1)NC2=O [CBK166244]	123.419
9	CC(CCCC(C)(C)O)CC1OCCC(C)O1 (stereo not shown) [CBK019986]	107.249
11	Cc1cc(NC(=O)c2cccc(N3C(=O)CCC3=O)c2)no1 [CBK287352]	82.2964
12	CCN(CC(C)C#N)C(=O)c1nnn(-c2ccc3ncccc3c2)c1C (stereo not shown) [CBK305292]	148.405
15	NCc1ccc(CN(Cc2ccc(-c3ccccc3)cc2)C(=O)Nc2c(F)cccc2F)cc1 [CBK046115C]	41.1804
20	Cc1c(C(=O)O)sc(S(=O)(=O)N2CCN(C(=O)CCc3cccs3)CC2)c1C(=O)O [CBK297135]	129.081
22	COc1ccc(CCC(=O)Nc2ccccc2N2CCCNCC2)cc1 [CBK024286T]	125.616
23	O=C(Cc1cccs1)N1CCC(c2cc3ncccc3[nH]2)CC1 [CBK283393]	113.824
29	CCc1noc(C)c1C(=O)N1CC[C@@H](CNC(=O)N2CCCC2)[C@H](O)C1 [CBK307222]	130.068
34	O=[N+]([O-])c1ccc(N2CCNCC2)cc1NCCO [CBK262851]	117.568
41	CCOC(=O)c1[nH]c2c([N+](=O)[O-])cccc2c1O [CBK115315]	97.6624
44	Cn1ncc2c1CCCN(C(=O)CCCOc1ccccc1F)C2 [CBK285278]	135.512
48	CN1CCN(c2nc(-c3ccoc3)cnc2N)CC1 [CBK063362]	167.539
49	CC(C)N(CCC(c1ccccc1)c1cc(Br)ccc1OCc1ccccc1)C(C)C (stereo not shown) [CBK017656]	66.3297
50	CCOC(=O)c1cc(C)sc1NC(=O)CCC(=O)O [CBK265412]	105.48
51	Cc1ccc(NC(=O)c2ccc(-n3nncc3C)cc2)cc1 [CBK287790]	128.192

(continued)

Row | Structure (SMILES) | % of control remaining [%]
55 | COc1ccc(C(=O)Nc2ccc(N3CCNCC3)nc2)cc1 [CBK029434T] | 120.262
56 | COC(=O)c1cn(C(=O)c2snnc2C)nc1C(C)(C)C [CBK021420] | 120.085
57 | CCc1noc(C)c1C(=O)NCc1cccnc1N(C)C1CCCCC1 [CBK306804] | 128.389
58 | COc1cccc(NC(=O)CSc2nnc(CC(C)C)n2C)c1 [CBK269626] | 76.7371
59 | CC(C)(C)C(=O)Nc1ccc(C(=O)Nc2cccc(C(=O)O)c2)cc1 [CBK261329] | 115.607
60 | OCCN1CC2(CCN(Cc3cccc(Oc4ccccc4)c3)CC2)c2ccccc21 [CBK131528] | 125.841
61 | CC1(C)C2CCC1(CS(=O)(=O)N(Cc1ccccc1)Cc1ccccc1)C(=O)C2 (stereo not shown) [CBK266082] | 93.9787
62 | CC(C(=O)c1ccc(-c2ccccc2F)cc1)N1CCN(c2ccc(C#N)cc2)CC1 (stereo not shown) [CBK074706] | 76.2871
63 | Cc1nn(C)cc1CN1CCCC(c2cc3ccccc3cn2)C1 (stereo not shown) [CBK285041] | 94.1678
64 | COc1ccc(C2(C(=O)NCc3ccc(Cl)c(Cl)c3)CC2)cc1 [CBK149827] | 91.7426
65 | CCOC(=O)CN1CCC(Oc2cncc(OCc3ccc(Cl)c(Cl)c3)n2)C1 (stereo not shown) [CBK084432] | 120.757
66 | COc1ccccc1CC(CC(=O)O)C(=O)O (stereo not shown) [CBK261508] | 100.438
67 | COc1cc2c(cc1OC)CN(C(=O)c1ccccn1)CC2 [CBK115864] | 185.218
68 | COC(=O)CCn1c(-c2ccccn2)cc2cccnc21 [CBK282634] | 109.504
69 | N#CCCN(Cc1ccccc1)C(=O)c1ccccc1[N+](=O)[O-] [CBK264434] | 108.994
70 | CC(=O)Nc1c(O)nc(SCC(=O)Nc2ccc(Cl)cc2)[nH]c1=O [CBK266214] | 97.7977
71 | Nc1c(C(=S)c2cccs2)oc2c1C(c1ccccc1)CC(=O)N2 (stereo not shown) [CBK020690] | 142.965
72 | CN(CCCc1nc(-c2ccc(Cl)cc2)no1)S(=O)(=O)c1ccc([N+](=O)[O-])cc1 [CBK267365] | 160.042
73 | NCCNc1ccc([N+](=O)[O-])c(Sc2nc3ccccc3[nH]2)c1 [CBK265882] | 109.675
74 | CN(C)C(=O)n1cc(Cl)c(-c2ccccc2)n1 [CBK004985] | 77.0995
75 | CCc1ccc(C(=O)c2ccccc2C(=O)O)cc1 [CBK010776] | 101.517
76 | COc1cc(CN2CCN(Cc3cccc4ccccc34)CC2)c([N+](=O)[O-])cc1OC [CBK074450G] | 110.984
77 | COCC(=O)N1CCN2C(=O)c3ccccc3NC(=O)[C@@H]2C1 [CBK289582] | 137.197
78 | CC(=O)Nc1cccc(-c2cn3ccnc3c(N[C@@H](CO)C(C)C)n2)c1 [CBK036605] | 168.531
79 | CCc1cccc(CC)c1NC(=O)CC1SC(NCc2ccc(C)cc2)=NC1=O (stereo not shown) [CBK059431] | 104.955
